# Results taken from publication PMC9649811.
# Results are given in words; binding and its absence hold for the method and conditions named. In cells and extracts the contact can be indirect. Some binding calls cover weakened binding; strength is not graded here.
# Biological target: heat shock protein 90α (mouse (endogenous in primary BMECs)) (UniProt P07901)
# Assay: co-IP; protein extracted from endothelial cells (BMECs, RIPA lysis buffer with 1% PMSF) incubated with Cav-1, HSP90α or negative control IgG antibody overnight at 4 °C; protein A/G agarose beads 4 h at 4 °C; eluate immunoblotted; the results also mention hypoxic treatment of the cells
binder,measurement,value
"Caveolin-1 (protein, UniProt P49817 1-178) MSGGKYVDSEGHLYTVPIREQGNIYKPNNKAMADEVTEKQVYDAHTKEIDLVNRDPKHLNDDVVKIDFEDVIAEPEGTHSFDGIWKASFTTFTVTKYWFYRLLSTIFGIPMALIWGIYFAILSFLHIWAVVPCIKSFLIEIQCISRVYSIYVHTFCDPLFEAIGKIFSNIRISTQKEI",binding,binds
